Some of the results follow. Most entries show no effect beyond the scatter of the controls.
Compound: CN[C@@H]1C[C@H]2O[C@@](C)([C@@H]1OC)n1c3ccccc3c3c4c(c5c6ccccc6n2c5c31)C(=O)NC4 [staurosporine]
Assay: log2 fold change of tryptic peptide abundance, ligand vs vehicle (limited proteolysis) (log2 ratio); higher = more trypsin-susceptible (destabilized)
Settings: ligand concentration: 20 uM; sample: mouse liver crude lysate; replicate design: treated separately

Protein sequences, listed by entry. Tags and fused reporters are not part of them. Lines headed by an entry give the natural chain unless they say otherwise; changes in a name come on top.
UniProt Q8CI33: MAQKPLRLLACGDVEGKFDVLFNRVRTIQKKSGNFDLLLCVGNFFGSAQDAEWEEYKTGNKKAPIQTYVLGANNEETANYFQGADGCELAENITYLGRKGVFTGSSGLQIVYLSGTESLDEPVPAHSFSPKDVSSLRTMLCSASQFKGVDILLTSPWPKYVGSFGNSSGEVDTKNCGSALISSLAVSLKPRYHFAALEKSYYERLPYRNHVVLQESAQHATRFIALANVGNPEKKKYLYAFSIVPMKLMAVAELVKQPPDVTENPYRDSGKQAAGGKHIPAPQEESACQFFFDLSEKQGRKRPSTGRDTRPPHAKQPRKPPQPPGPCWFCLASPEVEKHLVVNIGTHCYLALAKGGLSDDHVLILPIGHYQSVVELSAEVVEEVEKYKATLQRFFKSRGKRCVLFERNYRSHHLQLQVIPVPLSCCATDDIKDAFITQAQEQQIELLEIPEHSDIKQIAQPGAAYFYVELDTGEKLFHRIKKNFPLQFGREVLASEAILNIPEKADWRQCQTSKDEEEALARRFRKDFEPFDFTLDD
UniProt Q8CI75: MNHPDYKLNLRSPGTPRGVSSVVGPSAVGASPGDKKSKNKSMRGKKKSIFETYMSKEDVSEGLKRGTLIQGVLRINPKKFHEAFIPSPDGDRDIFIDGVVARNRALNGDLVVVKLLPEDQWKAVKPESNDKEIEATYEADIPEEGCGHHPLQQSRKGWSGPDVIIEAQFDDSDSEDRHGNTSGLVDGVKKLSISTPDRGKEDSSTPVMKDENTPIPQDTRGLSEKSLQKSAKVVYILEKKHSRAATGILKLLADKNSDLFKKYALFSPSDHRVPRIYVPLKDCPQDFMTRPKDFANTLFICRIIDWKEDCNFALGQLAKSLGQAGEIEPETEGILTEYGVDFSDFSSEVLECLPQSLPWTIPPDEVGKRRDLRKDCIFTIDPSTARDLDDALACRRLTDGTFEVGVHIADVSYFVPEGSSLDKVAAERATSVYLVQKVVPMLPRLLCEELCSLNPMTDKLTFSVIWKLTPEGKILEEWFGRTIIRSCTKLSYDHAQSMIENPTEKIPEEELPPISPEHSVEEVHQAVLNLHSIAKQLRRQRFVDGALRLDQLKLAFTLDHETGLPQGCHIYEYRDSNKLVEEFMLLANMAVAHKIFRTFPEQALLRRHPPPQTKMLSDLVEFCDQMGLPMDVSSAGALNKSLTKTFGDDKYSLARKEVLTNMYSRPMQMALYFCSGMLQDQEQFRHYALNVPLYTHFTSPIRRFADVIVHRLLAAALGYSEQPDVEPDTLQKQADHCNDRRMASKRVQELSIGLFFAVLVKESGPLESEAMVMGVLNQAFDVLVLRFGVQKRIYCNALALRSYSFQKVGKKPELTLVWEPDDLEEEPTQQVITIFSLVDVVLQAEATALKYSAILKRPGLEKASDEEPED
UniProt Q8CB96: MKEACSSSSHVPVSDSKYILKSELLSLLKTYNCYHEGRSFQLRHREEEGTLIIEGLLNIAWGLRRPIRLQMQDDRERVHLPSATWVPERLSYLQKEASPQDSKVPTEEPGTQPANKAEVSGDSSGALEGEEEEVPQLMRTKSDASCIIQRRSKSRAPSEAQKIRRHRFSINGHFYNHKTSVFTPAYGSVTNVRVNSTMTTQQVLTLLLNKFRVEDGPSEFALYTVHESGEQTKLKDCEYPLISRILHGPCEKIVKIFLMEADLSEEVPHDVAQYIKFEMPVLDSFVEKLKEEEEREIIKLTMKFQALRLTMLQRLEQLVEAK
UniProt Q8CGC4: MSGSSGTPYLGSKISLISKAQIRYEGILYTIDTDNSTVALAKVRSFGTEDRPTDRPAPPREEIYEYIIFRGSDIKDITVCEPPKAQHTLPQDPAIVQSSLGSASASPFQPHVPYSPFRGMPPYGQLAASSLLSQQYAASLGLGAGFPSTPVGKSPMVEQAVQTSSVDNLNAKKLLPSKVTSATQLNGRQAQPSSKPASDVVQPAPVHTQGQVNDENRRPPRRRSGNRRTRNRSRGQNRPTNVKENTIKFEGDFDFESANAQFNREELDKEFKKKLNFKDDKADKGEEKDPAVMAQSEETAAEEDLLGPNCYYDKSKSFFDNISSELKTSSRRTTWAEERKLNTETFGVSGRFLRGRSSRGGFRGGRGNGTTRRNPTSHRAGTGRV
UniProt Q8CGZ0: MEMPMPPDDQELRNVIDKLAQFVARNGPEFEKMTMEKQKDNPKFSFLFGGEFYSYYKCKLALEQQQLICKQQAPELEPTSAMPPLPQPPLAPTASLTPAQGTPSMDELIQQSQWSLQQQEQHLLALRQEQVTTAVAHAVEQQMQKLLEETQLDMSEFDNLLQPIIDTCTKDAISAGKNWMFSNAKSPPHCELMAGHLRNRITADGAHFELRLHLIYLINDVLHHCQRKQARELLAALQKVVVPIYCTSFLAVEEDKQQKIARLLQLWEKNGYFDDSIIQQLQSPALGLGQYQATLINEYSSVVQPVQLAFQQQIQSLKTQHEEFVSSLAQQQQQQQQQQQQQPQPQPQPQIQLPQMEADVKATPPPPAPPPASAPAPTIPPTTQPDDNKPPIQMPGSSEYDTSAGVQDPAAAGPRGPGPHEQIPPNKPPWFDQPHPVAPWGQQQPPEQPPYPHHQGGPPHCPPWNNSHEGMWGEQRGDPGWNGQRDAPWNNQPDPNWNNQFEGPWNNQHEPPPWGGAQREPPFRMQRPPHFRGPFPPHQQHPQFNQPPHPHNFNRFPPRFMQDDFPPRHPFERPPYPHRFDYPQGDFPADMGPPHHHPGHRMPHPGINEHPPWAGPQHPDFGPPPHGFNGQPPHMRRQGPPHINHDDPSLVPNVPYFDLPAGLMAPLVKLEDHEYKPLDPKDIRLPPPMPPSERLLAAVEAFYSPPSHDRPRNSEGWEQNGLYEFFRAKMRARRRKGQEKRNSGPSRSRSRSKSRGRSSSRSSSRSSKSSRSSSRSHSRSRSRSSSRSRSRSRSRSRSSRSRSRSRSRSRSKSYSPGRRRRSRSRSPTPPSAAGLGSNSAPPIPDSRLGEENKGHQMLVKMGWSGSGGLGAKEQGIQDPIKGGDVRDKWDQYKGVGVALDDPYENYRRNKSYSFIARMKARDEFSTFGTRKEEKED

| Target | log2 fold change |
| --- | --- |
| UniProt Q8CI33 (peptide sequence: NFPLQFGR, peptide start residue: 483) | 0.0986 |
| UniProt Q8CI75 (peptide sequence: TFGDDKYSLAR, peptide start residue: 645) | 0.41 |
| UniProt Q8CB96 (peptide sequence: SELLSLLK, peptide start residue: 22) | -0.209 |
| UniProt Q8CGC4 (peptide sequence: KLNTETFGVSGR, peptide start residue: 340) | 0.0951 |
| UniProt Q8CGZ0 (peptide sequence: LPPPMPPSER, peptide start residue: 685) | 0.178 |
